Test results reported in patent US6774222, “Molecular computing elements, gates and flip-flops” (The United States of America as represented by the …).
Construct, isoform or probe ends are uncertain for at least one entry. Where a protein sequence is shown, tags need not be part of it.

Biological target: T1, Fis (Factor for Inversion Stimulation) (Escherichia coli) (UniProt P0A6R3)
T1 sequence (looked up, limits assumed): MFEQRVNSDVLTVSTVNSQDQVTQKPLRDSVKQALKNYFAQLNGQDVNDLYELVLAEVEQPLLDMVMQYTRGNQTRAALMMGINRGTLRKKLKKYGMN
Assay: footprint
Details: CITED footprints from two groups protect one, the other and both sites; purified recombinant protein

## GTTATACACAACTCAAAAACTGAACAACAGTTGTTCTTTGGATAAC (double strand) [E. coli oriC Fis sites region]
  binding result: binds
